{"source": "patent US20060257938A1", "about": "“Method of screening for drugs that block ligand binding to a lipid binding protein” (priority 2005, published 2006)", "molecules": {"B1": {"name": "38H, 72A (protein, listed as Rattus norvegicus)", "chain": "AFDGTWKVDRNENYEKFMEKMGINVVKRKLGAHDNLKHTITQEGNKFTVKESSNFRNIDVVFELGVDFAYSAADGTELTGTWTMEGNKLVGKFKRVDNGKELIAVREISGNELIQTYTYEGVEAKRIFKKE", "modifications": "PEPTIDE (1)...(131) wild-type rat intestinal fatty acid binding protein"}, "B2": {"name": "55L, 72A (protein, listed as Rattus norvegicus)", "chain": "B1 chain with H38L, F55L", "modifications": "PEPTIDE (1)...(131) wild-type rat intestinal fatty acid binding protein"}, "B3": {"name": "72A 117A (protein, listed as Rattus norvegicus)", "chain": "B1 chain with H38L, Y117A", "modifications": "PEPTIDE (1)...(131) wild-type rat intestinal fatty acid binding protein"}, "B4": {"name": "38A 106V 117A 72A (protein, listed as Rattus norvegicus)", "chain": "B1 chain with H38A, R106V, Y117A", "modifications": "PEPTIDE (1)...(131) wild-type rat intestinal fatty acid binding protein"}, "B5": {"name": "115W, 72A (protein, listed as Rattus norvegicus)", "chain": "B1 chain with H38L, Q115W", "modifications": "PEPTIDE (1)...(131) wild-type rat intestinal fatty acid binding protein"}, "B6": {"name": "14L 18L 31L 73G 117V 72A (protein, listed as Rattus norvegicus)", "chain": "B1 chain with Y14L, M18L, G31L, H38L, A73G, Y117V", "modifications": "PEPTIDE (1)...(131) wild-type rat intestinal fatty acid binding protein"}, "B7": {"name": "38Y 72G 117M (protein, listed as Rattus norvegicus)", "chain": "B1 chain with H38Y, A72G, Y117M", "modifications": "PEPTIDE (1)...(131) wild-type rat intestinal fatty acid binding protein"}, "B8": {"name": "18L 73V 72A (protein, listed as Rattus norvegicus)", "chain": "B1 chain with M18L, H38L, A73V", "modifications": "PEPTIDE (1)...(131) wild-type rat intestinal fatty acid binding protein"}, "B9": {"name": "14L 18L 31W 73W 117L 72A (protein, listed as Rattus norvegicus)", "chain": "B1 chain with Y14L, M18L, G31W, H38L, A73W, Y117L", "modifications": "PEPTIDE (1)...(131) wild-type rat intestinal fatty acid binding protein"}, "B10": {"name": "126K, 72A (protein, listed as Rattus norvegicus)", "chain": "B1 chain with H38L, R126K", "modifications": "PEPTIDE (1)...(131) wild-type rat intestinal fatty acid binding protein"}, "B11": {"name": "38V 62V 117A 72A (protein, listed as Rattus norvegicus)", "chain": "B1 chain with H38V, F62V, Y117A", "modifications": "PEPTIDE (1)...(131) wild-type rat intestinal fatty acid binding protein"}, "B12": {"name": "70S, 72A (protein, listed as Rattus norvegicus)", "chain": "B1 chain with H38L, Y70S", "modifications": "PEPTIDE (1)...(131) wild-type rat intestinal fatty acid binding protein"}, "B13": {"name": "40M, 72A (protein, listed as Rattus norvegicus)", "chain": "B1 chain with H38L, I40M", "modifications": "PEPTIDE (1)...(131) wild-type rat intestinal fatty acid binding protein"}, "B14": {"name": "49M, 72A (protein, listed as Rattus norvegicus)", "chain": "B1 chain with H38L, V49M", "modifications": "PEPTIDE (1)...(131) wild-type rat intestinal fatty acid binding protein"}, "B15": {"name": "91Y, 72A (protein, listed as Rattus norvegicus)", "chain": "B1 chain with H38L, G91Y", "modifications": "PEPTIDE (1)...(131) wild-type rat intestinal fatty acid binding protein"}, "B16": {"name": "70H, 72A (protein, listed as Rattus norvegicus)", "chain": "B1 chain with H38L, Y70H", "modifications": "PEPTIDE (1)...(131) wild-type rat intestinal fatty acid binding protein"}, "B17": {"name": "31W, 72A (protein, listed as Rattus norvegicus)", "chain": "B1 chain with G31W, H38L", "modifications": "PEPTIDE (1)...(131) wild-type rat intestinal fatty acid binding protein"}, "B18": {"name": "104S, 72A (protein, listed as Rattus norvegicus)", "chain": "B1 chain with H38L, A104S", "modifications": "PEPTIDE (1)...(131) wild-type rat intestinal fatty acid binding protein"}, "B19": {"name": "23V, 72A (protein, listed as Rattus norvegicus)", "chain": "B1 chain with I23V, H38L", "modifications": "PEPTIDE (1)...(131) wild-type rat intestinal fatty acid binding protein"}, "B20": {"name": "31F, 72A (protein, listed as Rattus norvegicus)", "chain": "B1 chain with G31F, H38L", "modifications": "PEPTIDE (1)...(131) wild-type rat intestinal fatty acid binding protein"}, "B21": {"name": "18L, 72A (protein, listed as Rattus norvegicus)", "chain": "B1 chain with M18L, H38L", "modifications": "PEPTIDE (1)...(131) wild-type rat intestinal fatty acid binding protein"}, "B22": {"name": "91C, 72A (protein, listed as Rattus norvegicus)", "chain": "B1 chain with H38L, G91C", "modifications": "PEPTIDE (1)...(131) wild-type rat intestinal fatty acid binding protein"}, "B23": {"name": "18K, 72A (protein, listed as Rattus norvegicus)", "chain": "B1 chain with M18K, H38L", "modifications": "PEPTIDE (1)...(131) wild-type rat intestinal fatty acid binding protein"}, "B24": {"name": "18G 31W 73V 72A (protein, listed as Rattus norvegicus)", "chain": "B1 chain with M18G, G31W, H38L, A73V", "modifications": "PEPTIDE (1)...(131) wild-type rat intestinal fatty acid binding protein"}, "B25": {"name": "106F, 72A (protein, listed as Rattus norvegicus)", "chain": "B1 chain with H38L, R106F", "modifications": "PEPTIDE (1)...(131) wild-type rat intestinal fatty acid binding protein"}, "B26": {"name": "40V, 72A (protein, listed as Rattus norvegicus)", "chain": "B1 chain with H38L, I40V", "modifications": "PEPTIDE (1)...(131) wild-type rat intestinal fatty acid binding protein"}, "B27": {"name": "70W, 72A (protein, listed as Rattus norvegicus)", "chain": "B1 chain with H38L, Y70W", "modifications": "PEPTIDE (1)...(131) wild-type rat intestinal fatty acid binding protein"}, "B28": {"name": "14W 18L 117S 72A (protein, listed as Rattus norvegicus)", "chain": "B1 chain with Y14W, M18L, H38L, Y117S", "modifications": "PEPTIDE (1)...(131) wild-type rat intestinal fatty acid binding protein"}, "B29": {"name": "73Y, 72A (protein, listed as Rattus norvegicus)", "chain": "B1 chain with H38L, A73Y", "modifications": "PEPTIDE (1)...(131) wild-type rat intestinal fatty acid binding protein"}, "B30": {"name": "21D, 72A (protein, listed as Rattus norvegicus)", "chain": "B1 chain with M21D, H38L", "modifications": "PEPTIDE (1)...(131) wild-type rat intestinal fatty acid binding protein"}, "B31": {"name": "14I 18V 31W 73I 117V 72A (protein, listed as Rattus norvegicus)", "chain": "B1 chain with Y14I, M18V, G31W, H38L, A73I, Y117V", "modifications": "PEPTIDE (1)...(131) wild-type rat intestinal fatty acid binding protein"}, "B32": {"name": "14L 38I 72A (protein, listed as Rattus norvegicus)", "chain": "B1 chain with Y14L, H38I", "modifications": "PEPTIDE (1)...(131) wild-type rat intestinal fatty acid binding protein"}, "B33": {"name": "119L, 72A (protein, listed as Rattus norvegicus)", "chain": "B1 chain with H38L, Y119L", "modifications": "PEPTIDE (1)...(131) wild-type rat intestinal fatty acid binding protein"}, "B34": {"name": "38G, 72A (protein, listed as Rattus norvegicus)", "chain": "B1 chain with H38G", "modifications": "PEPTIDE (1)...(131) wild-type rat intestinal fatty acid binding protein"}, "B35": {"name": "11Q, 72A (protein, listed as Rattus norvegicus)", "chain": "B1 chain with N11Q, H38L", "modifications": "PEPTIDE (1)...(131) wild-type rat intestinal fatty acid binding protein"}}, "note": "Changes are numbered by the printed parent chain. Several values for one entry are separate records, joined by “and”; a condition that tells them apart may be missing. Equal entries are not always repeated.", "data": [{"assay": "Baseline fluorescence ratio Ro of probe in absence of analyte", "conditions": "baseline fluorescence ratio of probe", "values": [{"molecule": "B1", "Ro": 0.204}, {"molecule": "B2", "Ro": 0.155}, {"molecule": "B3", "Ro": 0.273}, {"molecule": "B4", "Ro": 0.418}, {"molecule": "B5", "Ro": 0.367}, {"molecule": "B6", "Ro": 0.440}, {"molecule": "B7", "Ro": 0.204}, {"molecule": "B8", "Ro": "0.364 and 0.455"}]}, {"assay": "Baseline fluorescence ratio Ro of probe in absence of analyte", "conditions": "baseline fluorescence ratio of probe, no fatty acid", "values": [{"molecule": "B9", "Ro": 0.201}, {"molecule": "B10", "Ro": 0.455}, {"molecule": "B11", "Ro": 0.325}, {"molecule": "B12", "Ro": 0.422}, {"molecule": "B13", "Ro": 0.195}, {"molecule": "B14", "Ro": 0.347}, {"molecule": "B15", "Ro": 0.307}, {"molecule": "B1", "Ro": 0.204}, {"molecule": "B2", "Ro": 0.155}, {"molecule": "B16", "Ro": 0.374}, {"molecule": "B17", "Ro": 0.462}, {"molecule": "B4", "Ro": 0.418}, {"molecule": "B18", "Ro": 0.242}, {"molecule": "B19", "Ro": 0.167}, {"molecule": "B20", "Ro": 0.492}, {"molecule": "B21", "Ro": 0.265}, {"molecule": "B22", "Ro": 0.334}, {"molecule": "B23", "Ro": 0.359}, {"molecule": "B24", "Ro": 0.232}, {"molecule": "B25", "Ro": 0.294}, {"molecule": "B26", "Ro": 0.164}, {"molecule": "B27", "Ro": 0.388}, {"molecule": "B28", "Ro": 0.228}, {"molecule": "B29", "Ro": 0.282}, {"molecule": "B6", "Ro": 0.440}, {"molecule": "B30", "Ro": 0.359}, {"molecule": "B8", "Ro": 0.364}, {"molecule": "B31", "Ro": 0.287}, {"molecule": "B32", "Ro": 0.267}, {"molecule": "B33", "Ro": 0.349}, {"molecule": "B34", "Ro": 0.301}, {"molecule": "B35", "Ro": 0.262}]}]}
